This is an account of results in US20250074980A1 (BRIGHAM AND WOMEN S HOSPITAL, published 2025).

Substitutions are numbered along the chain they refer to. In names and notes the source's numbering stands. Results are given in words; binding and its absence hold for the method and conditions named. Some results given as binding are weak or reduced against the parent protein; the word gives no strength.

Test [1] has as its target T1, CEACAM1 on transfected HeLa cells (human, UniProt P13688 35-526).
T1 construct: also called HeLa-CEACAM1; HeLa C1
T1 sequence: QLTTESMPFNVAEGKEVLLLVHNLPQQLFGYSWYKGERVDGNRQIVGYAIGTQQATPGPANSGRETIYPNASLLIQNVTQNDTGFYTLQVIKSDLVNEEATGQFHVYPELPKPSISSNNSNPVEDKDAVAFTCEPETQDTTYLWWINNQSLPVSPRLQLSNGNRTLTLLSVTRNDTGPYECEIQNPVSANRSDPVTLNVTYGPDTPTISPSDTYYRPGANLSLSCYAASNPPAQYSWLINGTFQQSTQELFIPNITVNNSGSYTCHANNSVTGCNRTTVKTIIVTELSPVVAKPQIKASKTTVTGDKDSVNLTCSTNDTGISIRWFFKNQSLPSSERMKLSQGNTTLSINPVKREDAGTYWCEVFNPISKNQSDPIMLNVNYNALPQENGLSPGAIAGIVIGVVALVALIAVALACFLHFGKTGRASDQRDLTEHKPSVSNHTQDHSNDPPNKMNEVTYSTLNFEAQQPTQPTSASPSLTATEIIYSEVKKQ
Briefly: flow cytometry, HeLa-CEACAM1 transfectants, % staining, stacked bars.

Test [2] deals with T1, CEACAM1 on transfected HeLa cells. Briefly: flow cytometry, HeLa-CEACAM1 transfectants, % positive cells. A general note: A flow cytometer gives signals particle by particle.
The next test deals with T2, GST-CEACAM1 (human, UniProt P13688 35-141, limits assumed).
T2 construct: also called human CEACAM1-GST protein
T2 sequence: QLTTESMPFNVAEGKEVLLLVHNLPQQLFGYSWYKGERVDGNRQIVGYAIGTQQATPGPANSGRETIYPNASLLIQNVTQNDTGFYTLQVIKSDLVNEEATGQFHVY
Description: scFv binding ELISA on GST-CEACAM1 coated at 1.0 µg/ml, anti-HIS6-HRP and TMB. On the procedure: The binding of affinity matured purified scFv to human CEACAM1 was analyzed using GST-CEACAM1. A Nunc Immuno MaxiSorp 96 well flat bottom microtitre plate was pre-coated with 1.0 μg/ml GST-CEACAM1 overnight at 4° C. The following day a two-fold dilution series of VH1/Vκ8 S29A parent scFv or test scFv (50 μg/ml to 0.8 μg/ml) in PBSB was incubated for 2 hours at RT on pre-coated ELISA plates. The binding of scFv was detected with an anti-HIS6-HRP antibody and TMB substrate. The reaction was stopped with 3 M HCl, absorbance read at 450 nm on a Dynex Technologies MRX TC II plate reader and the binding curves plotted. Parent scFv (VH1/Vκ8 S29A scFv) was included on each ELISA plate as a reference. An irrelevant scFv was included on at least one plate as a negative control. It was observed that a number of scFvs had improved binding to CEACAM1 compared to the parental VH1/Vκ8 S29A scFv. […] All 34 scFv variants were reformatted to whole IgG to provide greater accuracy with regard to purity and quantitation. The reformatting further allowed for an analysis of the avidity component of antibody binding, which is influenced by the bivalent nature of IgGs. As used herein, “avidity” is the measure of the strength of binding between an antigen-binding molecule (such as an antibody or antibody fragment thereof described herein) and the pertinent antigen.
In general terms: ELISA stands for enzyme-linked immunosorbent assay.

B1: VH1/Vκ8 S29A (antibody, IgG4, V domains shown)
VH: EVQLLESGGGLVQPGGSLRLSCAASGFIFSSHGMSWVRQAPGKGLEWVATISSGGTYTYYPDSVKGRFTISRDNSKNTLYLQMNSLKAEDTAMYYCARHDFDYDAAWFAYWGQGTLVTVSS
VL: EIVLTQSPATLSLSPGERATLSCRANSAVSYMYWYQQKPGQAPRPWIYLTSNRATGVPARFSGSGSGTDYTLTISSLEPEDFAVYYCQQWSSNPPTFGQGTKLEIK
notes: IgG4 (S241P), kappa; also called Parent; Parent (VH1/Vκ8 S29A)
For B1, the binding result in test [1] is “binds”.

B2: VH2/Vκ2 (antibody, IgG4, V domains shown)
VH: B1 VH with K87R
VL: B1 VL with A28S, V84T
notes: IgG4 (S241P), kappa
Turning to B2, in test [2], the binding entry is “binds”.

B3: 9B3_9E5/CP08E05 (antibody, IgG4, V domains shown)
VH: B1 VH with I28T, S30N, S31A, G33A, M34I, D100G
VL: B1 VL with S91T, S92T
notes: IgG4 (S241P), kappa
Turning to B3, the binding entry in test [1] is given as “binds”.

B4: VH3/Vκ2 (antibody, IgG4, V domains shown)
VH: B1 VH with P61A, K87R
VL: B1 VL with A28S, V84T
notes: IgG4 (S241P), kappa
As for B4, the binding entry in test [2] is reported as “binds”.

B5: VH4/Vκ4 (antibody, IgG4, V domains shown)
VH: B1 VH with A49S, P61A, K87R, M93V
VL: B1 VL with A28S, V57I, V84T
notes: IgG4 (S241P), kappa
For B5, the binding result in test [2] is given as “binds”.

B6: VH2/Vκ9 (antibody, IgG4, V domains shown)
VH: B1 VH with K87R
VL: B1 VL with A28S, W46L, V84T
notes: IgG4 (S241P), kappa
On to B6, for which the binding entry in test [2] was “binds”.

B7: VH2/Vκ1 (antibody, IgG4, V domains shown)
VH: B1 VH with K87R
VL: QIVLTQSPALLSLSPGERATMSCSANSSVSYMYWYRQKPGQAPKPWIYLTSNLASGVPARFSGSGSGTDYTLTISSLEAEDFATYYCQQWSSNPPTFGQGTKLEIK
notes: IgG4 (S241P), kappa
On to B7, for which the binding result in test [2] was “binds”.

B8: VH1/Vκ9 (antibody, IgG4, V domains shown)
VH: B1 VH
VL: B1 VL with A28S, W46L, V84T
notes: IgG4 (S241P), kappa
B8: the binding result in test [2] is recorded as “binds”.

B9: VH1/Vκ10 (antibody, IgG4, V domains shown)
VH: B1 VH
VL: B1 VL with A28S, V57I, Y70F, V84T
notes: IgG4 (S241P), kappa
For the molecule B9, in test [2], the binding result was “binds”.

B10: VH1/Vκ12 (antibody, IgG4, V domains shown)
VH: B1 VH
VL: B1 VL with A28S, W46L, V57I, V84T
notes: IgG4 (S241P), kappa
With B10, in test [2], the binding result is given as “binds”.

B11: VH2/Vκ11 (antibody, IgG4, V domains shown)
VH: B1 VH with K87R
VL: B1 VL with A28S, V57I
notes: IgG4 (S241P), kappa
In the case of B11, the binding result in test [2] was “binds”.

B12: VH1/Vκ2 (antibody, IgG4, V domains shown)
VH: B1 VH
VL: B1 VL with A28S, V84T
notes: IgG4 (S241P), kappa
For the molecule B12, in test [2], the binding entry is given as “binds”.

B13: VH3/Vκ4 (antibody, IgG4, V domains shown)
VH: B1 VH with P61A, K87R
VL: B1 VL with A28S, V57I, V84T
notes: IgG4 (S241P), kappa
Consider B13, for which, in test [2], the binding entry is “binds”.

B14: VH1/Vκ4 (antibody, IgG4, V domains shown)
VH: B1 VH
VL: B1 VL with A28S, V57I, V84T
notes: IgG4 (S241P), kappa
As to B14, in test [2], the binding entry is “binds”.

B15: 8H3_9B3/CP08F05 (antibody, IgG4, V domains shown)
VH: B1 VH with I28T, S30N, S31A, G33A, M34I, D104F, A105P, A106Y, Y110H
VL: B1 VL with S91T
notes: IgG4 (S241P), kappa
As for B15, the binding entry in test [1] is given as “binds”.

B16: VH4/Vκ2 (antibody, IgG4, V domains shown)
VH: B1 VH with A49S, P61A, K87R, M93V
VL: B1 VL with A28S, V84T
notes: IgG4 (S241P), kappa
As to B16, the binding result in test [2] was “binds”.

B17: VH2/Vκ10 (antibody, IgG4, V domains shown)
VH: B1 VH with K87R
VL: B1 VL with A28S, V57I, Y70F, V84T
notes: IgG4 (S241P), kappa
Consider B17, for which the binding result in test [2] is “binds”.

B18: VH2/Vκ7 (antibody, IgG4, V domains shown)
VH: B1 VH with K87R
VL: B1 VL with A28S, Y70F, V84T
notes: IgG4 (S241P), kappa
With B18, the binding entry in test [2] is “binds”.

B19: VH1/Vκ11 (antibody, IgG4, V domains shown)
VH: B1 VH
VL: B1 VL with A28S, V57I
notes: IgG4 (S241P), kappa
On to B19, for which the binding entry in test [2] is on record as “binds”.

B20: VH1/Vκ1 (antibody, IgG4, V domains shown)
VH: B1 VH
VL: B7 VL
notes: IgG4 (S241P), kappa
Regarding B20, the binding entry in test [2] is “binds”.

B21: VH1/Vκ7 (antibody, IgG4, V domains shown)
VH: B1 VH
VL: B1 VL with A28S, Y70F, V84T
notes: IgG4 (S241P), kappa
B21: the binding entry in test [2] was “binds”.

B22: VH2/Vκ12 (antibody, IgG4, V domains shown)
VH: B1 VH with K87R
VL: B1 VL with A28S, W46L, V57I, V84T
notes: IgG4 (S241P), kappa
For B22, the binding entry in test [2] is given as “binds”.

B23: VH2/Vκ8 (antibody, IgG4, V domains shown)
VH: B1 VH with K87R
VL: B1 VL with A28S
notes: IgG4 (S241P), kappa
With B23, the binding entry in test [2] is “binds”.

B24: Parent (scFv)
scFv, VH-linker-VL: EVQLLESGGGLVQPGGSLRLSCAASGFIFSSHGMSWVRQAPGKGLEWVATISSGGTYTYYPDSVKGRFTISRDNSKNTLYLQMNSLKAEDTAMYYCARHDFDYDAAWFAYWGQGTLVTVSSGGGGSGGGGSGGGGSEIVLTQSPATLSLSPGERATLSCRANSAVSYMYWYQQKPGQAPRPWIYLTSNRATGVPARFSGSGSGTDYTLTISSLEPEDFAVYYCQQWSSNPPTFGQGTKLEIK
B24: the binding entry with GST-CEACAM1 was “binds”.

B25: CP08A06 (scFv)
scFv, VH-linker-VL: B24 scFv, VH-linker-VL with F27Y, I28S
For the molecule B25, the binding entry with GST-CEACAM1 is given as “binds”.

B26: CP08D01 (scFv)
scFv, VH-linker-VL: B24 scFv, VH-linker-VL with I28T, S30N, S31A
As for B26, in the test with GST-CEACAM1, the binding result is reported as “binds”.

B27: CP08C01 (scFv)
scFv, VH-linker-VL: B24 scFv, VH-linker-VL with F27Y, I28S, S31N
With B27, the binding result in the test with GST-CEACAM1 is “binds”.

B28: CP09A04 (scFv)
scFv, VH-linker-VL: B24 scFv, VH-linker-VL with I28S, S30N, S31A, G33A
Consider B28, for which the binding result with GST-CEACAM1 was “binds”.

B29: CP09D03 (scFv)
scFv, VH-linker-VL: B24 scFv, VH-linker-VL with I28T, G33A, M34I
Take B29: in the test with GST-CEACAM1, the binding result was “binds”.

B30: CP09C02 (scFv)
scFv, VH-linker-VL: B24 scFv, VH-linker-VL with G26E, I28T, S31D, G33A, D100G
Regarding B30, the binding result in the test with GST-CEACAM1 is “binds”.

B31: CP08B11 (scFv)
scFv, VH-linker-VL: B24 scFv, VH-linker-VL with I28T, S30T, S31N
With B31, the binding entry in the test with GST-CEACAM1 is on record as “binds”.

B32: CP09F03 (scFv)
scFv, VH-linker-VL: B24 scFv, VH-linker-VL with I28T, S30N, S31N
notes: purified scFv form; the IgG form is m63
Regarding B32, the binding entry with GST-CEACAM1 is given as “binds”.

B33: CP08C04 (scFv)
scFv, VH-linker-VL: B24 scFv, VH-linker-VL with I28T
notes: purified scFv form; the IgG form is m90
As for B33, the binding entry with GST-CEACAM1 is “binds”.
